The values below come from paper PMC3968527, “Dynamic mass redistribution analysis of endogenous β-adrenergic receptor signaling in neonatal rat cardiac fibroblasts” (Pharmacology Research & Perspectives, 2014).

The test concerns endogenous βAR in primary neonatal rat cardiac fibroblasts (NRCF). The experiment in a line: Dynamic mass redistribution (DMR) response to βAR ligands in NRCF. In kind it is cell-based. To be noted: Cardiac fibroblast, βAR antagonist alone, positive-deflected DMR (inverse agonism).

A word on the EC50: it is the midpoint of the concentration-response curve. A higher EC50 goes with lower potency in that assay. `CC(C)NCC(O)COc1cccc2ccccc12` (stereo not shown) [Propranolol, propranolol] registered an EC50 of 32.7 ± 6.4 nM.
